Test results reported in ChEMBL document CHEMBL4513154, “CO-ADD screening of Jain University (India) compounds”.
The other results are listed elsewhere or left out. Potency and affinity values are given separately.

These molecules were tested on Pseudomonas aeruginosa. Conditions: Concentration 32 ug.mL-1; ASSAY_TEST Inhibition of Bacterial Growth; detection method Absorption (OD600); MEDIA CAMHB; plate type 384well; NBS; CORNING #3640; time 18 hr.

Question: N#Cc1ccccc1-c1ccc(Cn2c(-c3cscn3)nc3cc(Cl)ccc32)cc1 was tested. Which Inhibition did it give?
Answer: 13.15%

Question: How did the Inhibition turn out when N#Cc1ccccc1-c1ccc(Cn2c(-c3cscn3)nc3ccc(Cl)cc32)cc1 was run?
Answer: 10.52%

Question: Which Inhibition does the source give for Fc1cc(Cn2c(-c3cscn3)nc3c(Cl)cccc32)cc(C(F)(F)F)c1 here?
Answer: 7.84%

Question: Which Inhibition does the source give for N=C(Nc1ccccc1)c1cscn1 here?
Answer: 1.73%

Question: For N#Cc1ccc(Cn2c(-c3cscn3)nc3c(Cl)cccc32)cc1, which Inhibition is on record?
Answer: -22.73%

Question: Which Inhibition does the source give for Clc1ccc2c(c1)nc(-c1cscn1)n2Cc1ccccc1 here?
Answer: 8.18%

Question: For CCc1ccc(-n2c(-c3sc(Nc4ccccc4)nc3N)nc3ccccc3c2=O)cc1, which Inhibition is on record?
Answer: -11.75%

Question: Clc1cccc2[nH]c(-c3cscn3)nc12 was tested. Which Inhibition did it give?
Answer: 4.45%

Question: With Nc1nc(Nc2ccc(Cl)cc2)sc1-c1nc2ccccc2c(=O)n1-c1ccccc1 as the molecule, how does the Inhibition read?
Answer: 12.65%

Question: How did the Inhibition turn out when CCc1ccc(Nc2nc(N)c(-c3nc4ccccc4c(=O)n3-c3ccc(Cl)cc3)s2)cc1 was run?
Answer: 20.49%

Question: Which Inhibition does the source give for Nc1nc(Nc2ccccc2)sc1-c1nc2ccccc2c(=O)n1-c1ccc(Cl)cc1 here?
Answer: -20.53%

Question: For N=C(Nc1ccccc1Cl)c1cscn1, which Inhibition is on record?
Answer: 77.11%

Question: For N#Cc1ccccc1-c1ccc(Cn2c(-c3cscn3)nc3c(Cl)cccc32)cc1, which Inhibition is on record?
Answer: -1.85%

Question: N#Cc1ccccc1-c1ccc(Cn2c(-c3cscn3)nc3ccccc32)cc1 was tested. Which Inhibition did it give?
Answer: 9.08%

Question: How did the Inhibition turn out when CC(C)c1ccc(Cn2c(-c3cscn3)nc3c(Cl)cccc32)cc1 was run?
Answer: 2.02%

Question: CCc1ccc(Nc2nc(N)c(-c3nc4ccccc4c(=O)n3-c3ccc(CC)cc3)s2)cc1 was tested. Which Inhibition did it give?
Answer: 19.57%

Question: For Cn1c(-c2cscn2)nc2c(Cl)cccc21, which Inhibition is on record?
Answer: 8.59%

Question: How did the Inhibition turn out when Clc1cccc2c1nc(-c1cscn1)n2Cc1ccccc1 was run?
Answer: 12.34%

Question: How did the Inhibition turn out when Cn1c(-c2cscn2)nc2cc(Cl)ccc21 was run?
Answer: 12.13%

Question: Clc1ccc2nc(-c3cscn3)n(Cc3ccccc3)c2c1 was tested. Which Inhibition did it give?
Answer: 1.4%

Question: How did the Inhibition turn out when CCc1ccc(Nc2nc(N)c(-c3nc4ccccc4c(=O)n3-c3ccccc3)s2)cc1 was run?
Answer: 12.66%

Question: Which Inhibition does the source give for O=[N+]([O-])c1ccc(Cn2c(-c3cscn3)nc3ccccc32)cc1 here?
Answer: 14.88%

Question: Nc1nc(Nc2ccccc2)sc1-c1nc2ccccc2c(=O)n1-c1ccccc1 was tested. Which Inhibition did it give?
Answer: 16.07%
